Here are results for one molecule from patent US20240010724A1.

The target in this assay is rhCDH19(44-141)::caCDH19(141-770) (rhesus macaque/dog chimera). The assay is described as follows: flow cytometry, transfected 293T cells, 2 mM CaCl2. For orientation: A flow cytometer gives signals particle by particle.

Results are given in words; binding and its absence hold for the method and conditions named. Binding calls can cover weak binding; strength is not graded here.

B1: anti-CDH19 antibody 13589 (clone 4A9) (antibody, human IgG1, lambda, V domains shown)
VH: QVQLQESGPGLVKPSETLSLTCTVSGGSISGYYWSWIRQPPGKGLEWFAYFSYSGSTNYNPSLKSRVTLSVDTSKNQFSLKLSSVTAADTAVYYCARNWAFHFDFWGQGTLVTVSS
VL: QSVLTQPPSVSGAPGQRVTISCTGSSSNIGTGYAVHWYQQFPGTAPKLLIYGNNNRPSGVPDRFSGSKSGTSASLAITGLQAEDEADYYCQSYDSRLSGWVFGGGTKLTVLG
With B1, the binding entry is given as “binds”.
